Test results reported in the supplement of paper PMC12823440, “Inhibitors supercharge kinase turnover through native proteolytic circuits” (Nature, 2025).
Counter-ions that a name gives are not always drawn. Some of the results follow. Hit calls seldom repeat between salt and free forms of one compound.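 Kinases were expressed as nanoluciferase fusions in K562 cells and luminescence was read every 4 h between 2 and 18 h as percent of control, DMSO set to 100% and a positive control to 0%. A time point counts as decreased when the signal drops significantly (2 sigma). The hit call is the authors' own, does not follow from the count of time points alone, and its rule is not shown.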

The chains behind the UniProt entries cited, without tags or fusion partners. Where a name states a change or a piece, a line headed by the entry shows the natural chain unless it says otherwise.
UniProt P50613: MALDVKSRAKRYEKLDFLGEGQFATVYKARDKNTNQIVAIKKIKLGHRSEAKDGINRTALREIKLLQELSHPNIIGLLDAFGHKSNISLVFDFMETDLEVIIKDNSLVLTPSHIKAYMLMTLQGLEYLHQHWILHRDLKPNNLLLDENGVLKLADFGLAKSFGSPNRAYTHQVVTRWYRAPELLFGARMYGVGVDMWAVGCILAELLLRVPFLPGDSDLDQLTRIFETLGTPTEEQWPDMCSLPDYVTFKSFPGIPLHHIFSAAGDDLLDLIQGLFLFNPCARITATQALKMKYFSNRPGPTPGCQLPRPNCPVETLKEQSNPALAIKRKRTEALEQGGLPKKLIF

Biological target: CDK7 (UniProt P50613)
Test: kinase-Nluc reporter destabilization hit call (1 = scored as downregulated) (binary); higher = compound decreases kinase abundance
Conditions: 2.5 µM; K562; 2-18 h

kinase-Nluc reporter destabilization hit call, inactive:
C=CC(=O)N1CCC[C@@H](n2nc(-c3ccc(Oc4ccccc4)cc3)c3c(N)ncnc32)C1 [Ibrutinib] 0, Cc1cn(-c2cc(NC(=O)c3ccc(C)c(Nc4nccc(-c5cccnc5)n4)c3)cc(C(F)(F)F)c2)cn1 [Nilotinib] 0, Cc1cc(C)n2c1C=C1C=CC(CCC(=O)NCCN3CCN(C/C=C/C(=O)N4CCCC(n5nc(-c6ccc(Oc7ccccc7)cc6)c6c(N)ncnc65)C4)CC3)=[N+]1[B-]2(F)F (stereo not given) 0, Cc1cnc(Nc2ccc(OCCN3CCCC3)cc2)nc1Nc1cccc(S(=O)(=O)NC(C)(C)C)c1 [Fedratinib (hydrochloride hydrate)] 0, C=CC(=O)Nc1cc2c(Nc3ccc(F)c(Cl)c3)ncnc2cc1OCCCN1CCOCC1 [Canertinib (dihydrochloride)] 0, O=C(Nc1cccc(Nc2nccc(Nc3cccc(C(F)(F)F)c3)n2)c1)C1CC1 [Aurora kinase inhibitor-3] 0, COc1ccc(-c2cc3nccn3c(Nc3ncccc3C(N)=O)n2)cc1OC [BAY 61-3606 (dihydrochloride)] 0, Nc1nc(Nc2ccc(S(N)(=O)=O)cc2)nn1C(=O)c1c(F)cccc1F 0, COc1cc(N2CCC(N3CCN(C)CC3)CC2)ccc1Nc1ncc(Cl)c(Nc2ccccc2S(=O)(=O)C(C)C)n1 0, COc1cc(Nc2c(C#N)cnc3cc(OCCCN4CCN(C)CC4)c(OC)cc23)c(Cl)cc1Cl [Bosutinib] 0, CCc1cc2c(cc1-c1cnn(CC(=O)N(C)C)c1)C(C)(C)c1[nH]c3cc(C#N)ccc3c1C2=O 0, Cc1cnc(Nc2ccc(OCCN3CCCC3)cc2)nc1Nc1cccc(S(=O)(=O)NC(C)(C)C)c1 [Fedratinib] 0, Cc1cc(Nc2cc(N3CCN(C)CC3)nc(/C=C/c3ccccc3)n2)n[nH]1 [ENMD-2076 (Tartrate)] 0, Cc1cc(Nc2cc(N3CCN(C)CC3)nc(/C=C/c3ccccc3)n2)n[nH]1 0

Same assay, conditions: 10 µM; K562; 2-18 h

kinase-Nluc reporter destabilization hit call, inactive:
C=CC(=O)N1CCC([C@@H]2CCNc3c(C(N)=O)c(-c4ccc(Oc5ccccc5)cc4)nn32)CC1 [Zanubrutinib] 0, CCn1c(=O)c(-c2cc(NC(=O)Nc3ccccc3)c(F)cc2Br)cc2cnc(NC)cc21 [Ripretinib] 0, COc1cc(N2CCN(C)CC2)ccc1Nc1nccc(-c2cn(C)c3cnccc23)n1 0, Fc1ccc(-c2nc(-c3ccc4ccccc4c3F)[nH]c2-c2ccncc2)cc1 0, C=CC(=O)N(C)CCOc1c(N)ncnc1-c1cc(F)cc(NC(=O)c2ccc(C3CC3)cc2F)c1C [Remibrutinib] 0, NCCNc1ncc(C(N)=O)c(Nc2cccc(C(F)(F)F)c2)n1 [Syk Inhibitor II] 0, C[C@@H]1O[C@@H](Oc2c(-c3ccc(O)c(O)c3)oc3cc(O)cc(O)c3c2=O)[C@H](O)[C@H](O)[C@H]1O [Quercitrin] 0, CCCOc1ccc(C=C2SC(=O)NC2=O)cc1 0, Cc1cc2c(F)c(Oc3ncnn4cc(OC[C@@H](C)O)c(C)c34)ccc2[nH]1 [Brivanib] 0, CC(C)[C@@](C)(O)[C@@H]1CN(c2nc(-c3[nH]nc4ncccc34)c(F)cc2Cl)CCN1 0, CCCCCCCCCCCCc1ccc(S(=O)(=O)Nc2nncs2)cc1 0, CC#CC(=O)N1CCC[C@H]1c1nc(-c2ccc(C(=O)Nc3ccccn3)cc2)c2c(N)nccn12 [Acalabrutinib] 0, CC(C)N(CCC(=O)c1ccc2ccccc2c1)Cc1ccccc1 0, C=CC(=O)N1C[C@@H](Nc2ncnc3[nH]ccc23)CC[C@H]1C [(2R,5S)-Ritlecitinib] 0, COc1ccc(-c2cc(C(=O)NN=C(C)c3ccc(OC)c(OC)c3)[nH]n2)cc1 0, Cn1cc(/C=C2\C(=O)Nc3cccnc32)c2ccccc21 0, Cc1ccc2c(=O)c3cccc(CC(=O)O)c3oc2c1C [Vadimezan] 0, C[C@@H]1CN(C(=O)Nc2ccc(-c3nc(N4CCOCC4)c4cnn(CCCCCCC(=O)NO)c4n3)cc2)CCO1 [HDACs/mTOR Inhibitor 1] 0, C[C@H]1CN(C2COC2)CCN1c1ccc(Nc2cc(-c3ccnc(N4CCn5c(cc6c5CC(C)(C)C6)C4=O)c3CO)cn(C)c2=O)nc1 [Fenebrutinib] 0, Nc1ncccc1-c1nc2ccc(-c3ccccc3)nc2n1-c1ccc(C2(N)CCC2)cc1 [Miransertib] 0, C=CC(=O)Nc1cc2c(Nc3ccc(F)c(Cl)c3)ncnc2cc1OCCCN1CCOCC1 [Canertinib] 0, O=c1ncn2nc(Sc3ccc(F)cc3F)ccc2c1-c1c(Cl)cccc1Cl [Neflamapimod] 0, CCCCCC1CC1CC1CC1CCCCCCCC(=O)OC (stereo not given) 0, CC(C)(C)n1nc(-c2ccc(Cl)cc2)c2c(N)ncnc21 0, NC1(C(=O)N[C@@H](CCO)c2ccc(Cl)cc2)CCN(c2nc[nH]c3nccc2-3)CC1 [Capivasertib] 0, Cc1ccc(O)cc1Nc1ccnc(Nc2cccc(C(N)=O)c2)n1 [Lck inhibitor 2] 0
